Changes are numbered by the printed parent chain. These are yes or no findings as the source states them, for the method shown. Some results given as binding are weak or reduced against the parent protein; the word gives no strength.
B1: humanized Y1238 hz1 (hz-HC1/hz-LC1) (antibody, IgG1, V domains shown)
VH: QVQLVQSGAEVKKPGASVKVSCKASGYAFTNYLIEWVRQAPGQGLEWMGVINPGSGGTNYNEKFKGRVTMTRDTSISTAYMELSRLRSDDTAVYYCARSQLGRRFDYWGQGTLVTVSS
VL: DIQMTQSPSSLSASVGDRVTITCKASQDVRTGVAWYQQKPGKAPKLLIYSASYRNTGVPSRFSGSGSGTDFTFTISSLQPEDIATYYCQQHYSPPYTFGGGTKVEIK
B2: humanized Y1238 hz18 (hz-HC4/hz-LC3) (antibody, IgG1, V domains shown)
VH: B1 VH with R72A, T74K
VL: B1 VL with K42Q, A43S, G66R, T85V
B3: humanized Y1238 hz31 (hz-HC7/hz-LC1) (antibody, IgG1, V domains shown)
VH: B1 VH with K12V, A40R, R72A, T74K, I76S, E82Q, Y95F
VL: B1 VL
B4: humanized Y1238 hz9 (hz-HC2/hz-LC4) (antibody, IgG1, V domains shown)
VH: B1 VH with R72A
VL: B1 VL with K42Q, A43S, G66R, P80A, T85V
B5: humanized Y1238 hz26 (hz-HC6/hz-LC1) (antibody, IgG1, V domains shown)
VH: B1 VH with A40R, M70L, R72A, T74K
VL: B1 VL
B6: humanized Y1238 hz24 (hz-HC5/hz-LC4) (antibody, IgG1, V domains shown)
VH: B1 VH with A40R, R72A, T74K
VL: B1 VL with K42Q, A43S, G66R, P80A, T85V
B7: humanized Y1238 hz19 (hz-HC4/hz-LC4) (antibody, IgG1, V domains shown)
VH: B1 VH with R72A, T74K
VL: B1 VL with K42Q, A43S, G66R, P80A, T85V
B8: humanized Y1238 hz3 (hz-HC1/hz-LC3) (antibody, IgG1, V domains shown)
VH: B1 VH
VL: B1 VL with K42Q, A43S, G66R, T85V
B9: humanized Y1238 hz4 (hz-HC1/hz-LC4) (antibody, IgG1, V domains shown)
VH: B1 VH
VL: B1 VL with K42Q, A43S, G66R, P80A, T85V
B10: humanized Y1238 hz36 (hz-HC8/hz-LC1) (antibody, IgG1, V domains shown)
VH: B1 VH with K12V, A40R, M70L, R72A, T74K, I76S, E82Q, Y95F
VL: B1 VL
B11: humanized Y1238 hz6 (hz-HC2/hz-LC1) (antibody, IgG1, V domains shown)
VH: B1 VH with R72A
VL: B1 VL
B12: humanized Y1238 hz29 (hz-HC6/hz-LC4) (antibody, IgG1, V domains shown)
VH: B1 VH with A40R, M70L, R72A, T74K
VL: B1 VL with K42Q, A43S, G66R, P80A, T85V
B13: humanized Y1238 hz7 (hz-HC2/hz-LC2) (antibody, IgG1, V domains shown)
VH: B1 VH with R72A
VL: B1 VL with G66R
B14: humanized Y1238 hz35 (hz-HC7/hz-LC5) (antibody, IgG1, V domains shown)
VH: B1 VH with K12V, A40R, R72A, T74K, I76S, E82Q, Y95F
VL: B1 VL with K42Q, G66R, T85V
B15: humanized Y1238 hz25 (hz-HC5/hz-LC5) (antibody, IgG1, V domains shown)
VH: B1 VH with A40R, R72A, T74K
VL: B1 VL with K42Q, G66R, T85V
B16: humanized Y1238 hz32 (hz-HC7/hz-LC2) (antibody, IgG1, V domains shown)
VH: B1 VH with K12V, A40R, R72A, T74K, I76S, E82Q, Y95F
VL: B1 VL with G66R
B17: humanized Y1238 hz38 (hz-HC8/hz-LC3) (antibody, IgG1, V domains shown)
VH: B1 VH with K12V, A40R, M70L, R72A, T74K, I76S, E82Q, Y95F
VL: B1 VL with K42Q, A43S, G66R, T85V
B18: humanized Y1238 hz21 (hz-HC5/hz-LC1) (antibody, IgG1, V domains shown)
VH: B1 VH with A40R, R72A, T74K
VL: B1 VL
B19: humanized Y1238 hz10 (hz-HC2/hz-LC5) (antibody, IgG1, V domains shown)
VH: B1 VH with R72A
VL: B1 VL with K42Q, G66R, T85V
B20: humanized Y1238 hz37 (hz-HC8/hz-LC2) (antibody, IgG1, V domains shown)
VH: B1 VH with K12V, A40R, M70L, R72A, T74K, I76S, E82Q, Y95F
VL: B1 VL with G66R
B21: humanized Y1238 hz23 (hz-HC5/hz-LC3) (antibody, IgG1, V domains shown)
VH: B1 VH with A40R, R72A, T74K
VL: B1 VL with K42Q, A43S, G66R, T85V
B22: humanized Y1238 hz34 (hz-HC7/hz-LC4) (antibody, IgG1, V domains shown)
VH: B1 VH with K12V, A40R, R72A, T74K, I76S, E82Q, Y95F
VL: B1 VL with K42Q, A43S, G66R, P80A, T85V
B23: humanized Y1238 hz20 (hz-HC4/hz-LC5) (antibody, IgG1, V domains shown)
VH: B1 VH with R72A, T74K
VL: B1 VL with K42Q, G66R, T85V
B24: humanized Y1238 hz28 (hz-HC6/hz-LC3) (antibody, IgG1, V domains shown)
VH: B1 VH with A40R, M70L, R72A, T74K
VL: B1 VL with K42Q, A43S, G66R, T85V
B25: humanized Y1238 hz17 (hz-HC4/hz-LC2) (antibody, IgG1, V domains shown)
VH: B1 VH with R72A, T74K
VL: B1 VL with G66R
B26: humanized Y1238 hz16 (hz-HC4/hz-LC1) (antibody, IgG1, V domains shown)
VH: B1 VH with R72A, T74K
VL: B1 VL
B27: humanized Y1238 hz39 (hz-HC8/hz-LC4) (antibody, IgG1, V domains shown)
VH: B1 VH with K12V, A40R, M70L, R72A, T74K, I76S, E82Q, Y95F
VL: B1 VL with K42Q, A43S, G66R, P80A, T85V
B28: humanized Y1238 hz2 (hz-HC1/hz-LC2) (antibody, IgG1, V domains shown)
VH: B1 VH
VL: B1 VL with G66R
B29: humanized Y1238 hz30 (hz-HC6/hz-LC5) (antibody, IgG1, V domains shown)
VH: B1 VH with A40R, M70L, R72A, T74K
VL: B1 VL with K42Q, G66R, T85V
B30: humanized Y1238 hz33 (hz-HC7/hz-LC3) (antibody, IgG1, V domains shown)
VH: B1 VH with K12V, A40R, R72A, T74K, I76S, E82Q, Y95F
VL: B1 VL with K42Q, A43S, G66R, T85V
B31: humanized Y1238 hz5 (hz-HC1/hz-LC5) (antibody, IgG1, V domains shown)
VH: B1 VH
VL: B1 VL with K42Q, G66R, T85V
B32: humanized Y1238 hz22 (hz-HC5/hz-LC2) (antibody, IgG1, V domains shown)
VH: B1 VH with A40R, R72A, T74K
VL: B1 VL with G66R
B33: humanized Y1238 hz8 (hz-HC2/hz-LC3) (antibody, IgG1, V domains shown)
VH: B1 VH with R72A
VL: B1 VL with K42Q, A43S, G66R, T85V
B34: humanized Y1238 hz27 (hz-HC6/hz-LC2) (antibody, IgG1, V domains shown)
VH: B1 VH with A40R, M70L, R72A, T74K
VL: B1 VL with G66R

Amino acid sequences for entries named in this document (tags omitted). A change or cut given only in a name is not applied to a line headed by its entry.
UniProt P25942: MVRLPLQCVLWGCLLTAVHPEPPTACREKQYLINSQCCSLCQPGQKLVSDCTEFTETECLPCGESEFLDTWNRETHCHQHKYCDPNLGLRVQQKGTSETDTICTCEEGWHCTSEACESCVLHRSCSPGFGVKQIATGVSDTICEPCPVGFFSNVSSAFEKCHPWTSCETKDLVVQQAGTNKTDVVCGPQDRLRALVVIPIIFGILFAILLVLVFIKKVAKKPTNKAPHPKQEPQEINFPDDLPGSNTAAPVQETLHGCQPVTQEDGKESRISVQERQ

Molecular target: human-CD40 monomer (human) (UniProt P25942)
Assay: SPR 2 pt screen

Row | Binder | binding
1 | B1 | binds
2 | B2 | binds
3 | B3 | binds
4 | B4 | binds
5 | B5 | binds
6 | B6 | binds
7 | B7 | binds
8 | B8 | binds
9 | B9 | binds
10 | B10 | binds
11 | B11 | binds
12 | B12 | binds
13 | B13 | binds
14 | B14 | binds
15 | B15 | binds
16 | B16 | binds
17 | B17 | binds

Row | Binder | binding
18 | B18 | binds
19 | B19 | binds
20 | B20 | binds
21 | B21 | binds
22 | B22 | binds
23 | B23 | binds
24 | B24 | binds
25 | B25 | binds
26 | B26 | binds
27 | B27 | binds
28 | B28 | binds
29 | B29 | binds
30 | B30 | binds
31 | B31 | binds
32 | B32 | binds
33 | B33 | binds
34 | B34 | binds

— patent US20230322941A1
